Results from PubChem BioAssay AID743255 (National Center for Advancing Translational Sciences (NCATS), 2014).
The whole screen tested about 390,000 compounds, of which about 910 (0.23%) were called active. The shares of active, inactive and inconclusive entries below differ from those in the screen. Calls follow the shape of the dose curve; as a rule, active = well fitted inhibition curve with a large enough effect; inconclusive = small, poorly fitted or top-dose-only effect; inactive = no such curve, though single readings can be large or run the other way. Potencies of inconclusive entries are doubtful fits and often do not repeat.
% is scaled to controls: 0 for no effect and ±100 for the full control effect; potency is read from the fitted curve at half-maximal effect.
Also: nearly all actives have a fitted effect of over 60% in size.

Protein sequences, listed by entry. Tags and fused reporters are not part of them. Lines headed by an entry give the natural chain unless they say otherwise; changes in a name come on top.
UniProt O94782: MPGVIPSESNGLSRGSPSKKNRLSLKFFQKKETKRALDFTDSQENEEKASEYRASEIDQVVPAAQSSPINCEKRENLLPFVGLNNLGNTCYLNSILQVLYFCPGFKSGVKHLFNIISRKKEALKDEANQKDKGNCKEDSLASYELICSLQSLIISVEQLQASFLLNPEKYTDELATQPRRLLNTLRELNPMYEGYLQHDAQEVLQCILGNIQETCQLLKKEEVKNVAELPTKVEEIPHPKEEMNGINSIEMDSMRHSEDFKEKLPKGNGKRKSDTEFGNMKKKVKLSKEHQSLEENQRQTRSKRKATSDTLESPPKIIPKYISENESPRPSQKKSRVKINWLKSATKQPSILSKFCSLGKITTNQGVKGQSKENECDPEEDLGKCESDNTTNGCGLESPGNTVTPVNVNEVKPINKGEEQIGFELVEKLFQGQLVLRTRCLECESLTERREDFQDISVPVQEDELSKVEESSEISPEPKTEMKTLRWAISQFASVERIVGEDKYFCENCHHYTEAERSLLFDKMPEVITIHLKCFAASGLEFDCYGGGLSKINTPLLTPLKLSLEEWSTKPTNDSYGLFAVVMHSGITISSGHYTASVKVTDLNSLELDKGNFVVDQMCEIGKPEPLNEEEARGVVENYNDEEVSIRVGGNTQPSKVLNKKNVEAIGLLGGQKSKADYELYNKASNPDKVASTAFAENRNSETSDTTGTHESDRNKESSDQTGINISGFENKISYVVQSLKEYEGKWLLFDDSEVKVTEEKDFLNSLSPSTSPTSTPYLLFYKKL

These molecules were tested against Ubiquitin carboxyl-terminal hydrolase 1 (Homo sapiens) (UniProt O94782) (assay: Inhibitors of USP1/UAF1: Primary Screen). Settings: recombinant USP1/UAF1, Ub-Rhodamine cleavage fluorescence; activity change, negative = inhibition: at 57.1 µM (top of the series).
Method in brief: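 Step one: compound is pinned into 1nM USP1/UAF1 in HEPES pH 7.8 buffer with TCEP. Step two: 15 min room-temperature incubation. Step three: Ub-Rho (150nM final) starts cleavage, tracked by fluorescence over six one-minute reads.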
`CCCCN(C)CC(O)Cn1cc(/C=C/C(=O)c2ccc(Br)cc2)c2ccccc21` (stereo not given) was tested, and the Potency was inconclusive: 39.8 µM [inhibitor, partial curve]. In the case of `CCOc1ccc(Nc2nc(-c3cccc(Cl)c3)c3c(n2)-c2ccccc2OC3)cc1`, the “activity change, negative = inhibition” value is reported as inactive: -5.51%. In the case of `CC(C)NC(=S)NN=C1c2ccccc2-c2ccccc21`, the Potency is reported as inconclusive: 35.5 µM [inhibitor, partial curve]. With `CCc1ccccc1Nc1nn2c(=O)c3ccc(C(=O)NCCC4=CCCCC4)cc3nc2s1` the Potency was inconclusive: 100 µM [inhibitor, partial curve, poor fit]. For `O=C(Nc1ccc(C(=O)O)cc1)/C(=C\c1ccc2c(c1)OCO2)NC(=O)c1ccc(Br)o1`, the “activity change, negative = inhibition” value was inactive: -5.56%. `CCCC(=O)Nc1cccc(OCc2cc(=O)n3cccc(C)c3n2)c1` was tested, and the “activity change, negative = inhibition” value was inactive: -7.99%. `N#Cc1ccccc1N1CCN(C(=O)c2ccc(NC(=O)c3ccc(Br)o3)cc2)CC1` was tested, and the Potency was inconclusive: 0.251 µM [inhibitor, full curve, poor fit]. For `CCN1C(C(=O)c2ccccc2)=C(OC(=O)COc2ccc(C)cc2)c2ccccc2S1(=O)=O`, the “activity change, negative = inhibition” value was inactive: -1.24%. In the case of `COc1cc(CNC(C)C23CC4CC(CC(C4)C2)C3)ccc1OCC(=O)NC(C)(C)C` (stereo not given), the “activity change, negative = inhibition” value is reported as inactive: -18.5%. With `O=C(NC1=C(NC2CCS(=O)(=O)C2)C(=O)c2ccccc2C1=O)c1ccccc1` (stereo not given) the Potency was inconclusive: 17.8 µM [inhibitor, partial curve]. `COc1ccccc1NC(=O)/C(C#N)=C/c1cc([N+](=O)[O-])ccc1N1CCCC1` was tested, and the Potency was inconclusive: 7.08 µM [inhibitor, single point]. `COc1ccc(N2CCN(CCCNC(=O)C3COc4ccccc4C3)CC2)cc1` (stereo not given) was tested, and the Potency was inconclusive: 7.94 µM [inhibitor, single point]. `Cc1cc(NC(=O)CN2CCc3ccccc3C2)nc2c1c(=O)oc1ccccc12` was tested, and the Potency was inconclusive: 31.6 µM [inhibitor, partial curve]. `CCCC1(c2ccccc2)NC(=O)NC1=O` (stereo not given) was tested, and the Potency was inconclusive: 63.1 µM [inhibitor, partial curve, poor fit]. For `Cc1ccc(S(=O)(=O)Nc2nc3ccc(S(C)(=O)=O)cc3s2)cc1`, the “activity change, negative = inhibition” value was inactive: -20.5%. With `CCC(C)Cn1cnc2c(SCc3ccccn3)nc(N)nc21` (stereo not given) the Potency was inconclusive: 1.12 µM [inhibitor, partial curve, poor fit]. For `CC1CCN(C(=O)c2[nH]cnc2C(=O)NCc2ccc(CNC(=O)OC(C)(C)C)cc2)CC1`, the Potency was inconclusive: 2.24 µM [inhibitor, full curve, poor fit]. In the case of `CCCCN(CCCC)CCCNC(=O)C12CN(Cc3ccccc3)CC1C(c1cccc([N+](=O)[O-])c1)=NO2` (stereo not given), the Potency is reported as inconclusive: 15.8 µM [inhibitor, partial curve, poor fit]. In the case of `Cc1csc(=O)n1CC(=O)OCC(=O)Nc1ccc(F)c(F)c1F`, the “activity change, negative = inhibition” value is reported as inactive: 7.62%. For `O=C(N/N=C/c1ccc([N+](=O)[O-])o1)C(=O)Nc1ccc(C(=O)O)cc1`, the Potency was inconclusive: 0.282 µM [inhibitor, full curve, poor fit]. `COc1cc2c(c(OC)c1OC)-c1ccc(NC(=O)c3ccc(F)cc3)c(=O)cc1[C@@H](NC(C)=O)CC2` was tested, and the Potency was inconclusive: 44.7 µM [inhibitor, partial curve, poor fit]. With `CCc1nnc(NC(=O)c2sc3nc4cc(C)ccc4cc3c2N)s1` the Potency was inconclusive: 17.8 µM [inhibitor, partial curve]. In the case of `Cc1cccc(C(=O)NCC(c2cccs2)S(=O)(=O)c2cccs2)c1` (stereo not given), the Potency is reported as inconclusive: 1.78 µM [inhibitor, full curve]. With `COc1ccc(C(=O)Nc2ccc(N3CCOCC3)cc2)cc1S(=O)(=O)N1CCOCC1` the Potency was inconclusive: 44.7 µM [inhibitor, partial curve]. With `CN(C)c1ccc(CN(Cc2ccco2)C(=O)COc2ccc(F)cc2)cc1` the “activity change, negative = inhibition” value was inactive: -26.4%. `Cc1ccc(S(=O)(=O)N(C)c2ccc(OCC(=O)NC3=NCCS3)cc2)cc1` was tested, and the Potency was inconclusive: 39.8 µM [inhibitor, partial curve, poor fit]. With `O=C(CSc1ccc(-c2cccc([N+](=O)[O-])c2)nn1)N1CCCCCC1` the “activity change, negative = inhibition” value was inactive: 4.14%. With `CC(=O)C[C@H]1c2ccccc2S(=O)(=O)N1c1ccccc1` the Potency was inconclusive: 4.47 µM [inhibitor, partial curve]. `COc1ccc2nc(N3CCCCC3)c(/C=C3\SC(=S)NC3=O)cc2c1` was tested, and the Potency was inconclusive: 39.8 µM [inhibitor, partial curve]. In the case of `c1ccc(-c2cnc(CSc3nnc4ccccn34)o2)cc1`, the “activity change, negative = inhibition” value is reported as inactive: -20.2%. For `CCN(CC)CCNC(=O)c1ccc(NC(=O)c2cccc(S(=O)(=O)Nc3ccc(C)cc3)c2)cc1`, the “activity change, negative = inhibition” value was inactive: -19.4%. With `Cc1oc(-c2ccc(C(=O)NCCC(C)C)cc2)nc1CS(=O)(=O)c1ccccc1` the “activity change, negative = inhibition” value was inactive: -10.2%. `NNC(=O)c1sccc1OCc1ccc(F)cc1` was tested, and the Potency was inconclusive: 7.94 µM [inhibitor, partial curve]. For `Cc1ccc(-c2nc3n(n2)C(c2ccccc2Cl)C=C(c2ccc(Cl)cc2)N3)cc1` (stereo not given), the Potency was inconclusive: 28.2 µM [inhibitor, single point]. `CN(CCc1cnn(C)c1)C(=O)CCc1nnc(CCCc2ccccc2)o1` was tested, and the “activity change, negative = inhibition” value was inactive: 0.299%. With `CCc1ccc(CNc2ncc(-c3cccc(OC)c3)n2C)cc1` the Potency was inconclusive: 5.01 µM [inhibitor, single point]. With `Cc1ccc(NC(=O)CN2C(=O)c3cccnc3Sc3ccccc32)cc1C` the Potency was inconclusive: 17.8 µM [inhibitor, partial curve, poor fit]. `C/C(C/C(C)=C1/SC(=S)NC1=O)=C1\SC(=S)NC1=O` was tested, and the Potency was inconclusive: 70.8 µM [inhibitor, partial curve, poor fit]. In the case of `CCN1C(=O)[C@H]2[C@@H](c3ccc(-c4ccc5c(c4)OCO5)c(OC)c3)N[C@@](Cc3ccccc3)(C(=O)OC)[C@H]2C1=O`, the Potency is reported as inconclusive: 0.282 µM [inhibitor, full curve, poor fit]. With `COc1ccc(C(O)(c2ccccc2OC)C(CN2CCOCC2)c2ccccc2)cc1` (stereo not given) the Potency was inconclusive: 0.631 µM [inhibitor, full curve, poor fit]. `Nc1ccc(Br)c2cccnc12` was tested, and the Potency was inconclusive: 28.2 µM [inhibitor, partial curve]. `CCCSc1ncc(Cl)c(C(=O)Nc2ccc(S(=O)(=O)N3CCCC(C)C3)cc2)n1` (stereo not given) was tested, and the “activity change, negative = inhibition” value was inactive: -2.55%. For `CSc1nc(N)nc2c1ncn2CC(=O)N[C@H](C)c1cccc2ccccc12`, the “activity change, negative = inhibition” value was inactive: -20.8%. With `Cc1cccc(N2CCN(C(=O)c3ccc4nc(N5CCC(C)CC5)sc4c3)CC2)c1C` the Potency was inconclusive: 0.708 µM [inhibitor, partial curve, poor fit]. For `O=C(CSc1nc(Nc2ccccc2)nc(N2CCOCC2)n1)Nc1ccc([N+](=O)[O-])cc1`, the “activity change, negative = inhibition” value was inactive: -17%. In the case of `Cc1c(C(=O)N(Cc2ccc(N(C)C)cc2)CC2CCCO2)oc2ccccc12` (stereo not given), the Potency is reported as inconclusive: 6.31 µM [inhibitor, full curve]. For `COc1ccc(OC(=O)/C=C/c2ccc([N+](=O)[O-])cc2)cc1`, the “activity change, negative = inhibition” value was inactive: -17%. `COc1ccc(NC(=O)CCS(=O)(=O)c2cccc3nonc23)cc1` was tested, and the Potency was inconclusive: 0.708 µM [inhibitor, full curve, poor fit]. `Cc1nc2sc(C)c(C)n2c(=O)c1S(=O)(=O)N1CCN(c2ccccc2F)CC1` was tested, and the Potency was inconclusive: 44.7 µM [inhibitor, partial curve, poor fit]. `COc1cccc(NC(=O)CNC(=O)Cn2cnc3sc4c(c3c2=O)CCCC4)c1` was tested, and the Potency was inconclusive: 8.91 µM [inhibitor, partial curve]. `COc1ccc(NS(=O)(=O)c2ccc(Cl)s2)cn1` was tested, and the Potency was inconclusive: 44.7 µM [inhibitor, partial curve, poor fit]. With `CC1CCCN(Cc2cccc(Oc3ccccc3)c2)C1` (stereo not given) the Potency was inconclusive: 7.94 µM [inhibitor, partial curve, poor fit]. `CCOC(=O)c1c(-c2ccccc2)c2cc(OC)ccc2n1CCCN(C)C` was tested, and the “activity change, negative = inhibition” value was inactive: -15.5%. In the case of `COc1ccc2c(c1)c1c(c(=O)n(-c3ccc(C)cc3)c(=O)n1CC(=O)c1ccc(Cl)cc1)n2C`, the Potency is reported as inconclusive: 10 µM [inhibitor, partial curve]. With `COc1ccccc1S(=O)(=O)N(C)C[C@H]1OCc2cn(nn2)CCCC(=O)N([C@H](C)CO)C[C@@H]1C` the “activity change, negative = inhibition” value was inactive: -25%. With `O=C(c1ccco1)N1CCN(c2ccc(F)cc2)CC1` the “activity change, negative = inhibition” value was inactive: -17.7%. In the case of `COc1ccc(NS(=O)(=O)c2ccc(-c3cnc(C4CC4)o3)cc2)cc1OC`, the “activity change, negative = inhibition” value is reported as inactive: -17.7%. For `Cc1oc2c(c1C(=O)Nc1ccc(F)c(F)c1)C1=NCCN1C=N2`, the Potency was inconclusive: 50.1 µM [inhibitor, partial curve, poor fit]. For `CC(OC(=O)c1ccc(NC(=O)CC#N)cc1)C(=O)Nc1ccc(S(=O)(=O)N2CCCC2)cc1` (stereo not given), the Potency was inconclusive: 0.282 µM [inhibitor, full curve, poor fit]. With `C#CCOCCOCCOCCNc1nc(N2CCN(C(=O)[C@H](CO)n3cc([C@@H](N)C(C)C)nn3)CC2)nc(N2CCN(C(=O)[C@H](CO)n3cc([C@@H](N)C(C)C)nn3)CC2)n1` the “activity change, negative = inhibition” value was inactive: -30%. In the case of `CCCC(=O)N1CC(=O)Nc2ccc(C)cc2C1c1ccc(F)cc1` (stereo not given), the Potency is reported as inconclusive: 44.7 µM [inhibitor, partial curve, poor fit]. For `COc1ccc(OC)c(NC(=O)c2oc3c(c2C)C(O)CC(C)(C)C3)c1` (stereo not given), the Potency was inconclusive: 35.5 µM [inhibitor, partial curve, poor fit]. In the case of `CC1=NN(C(N)=S)C(=O)C1N=Nc1ccc([N+](=O)[O-])cc1` (stereo not given), the “activity change, negative = inhibition” value is reported as inactive: -22.6%. In the case of `CC(=O)N1c2ccc(S(=O)(=O)NCCC(=O)N3CCC(C)CC3)cc2CC1C` (stereo not given), the “activity change, negative = inhibition” value is reported as inactive: -7.49%. `CCCCN(Cc1ccccc1)C(=O)C1CCCN(S(=O)(=O)c2cnc[nH]2)C1` (stereo not given) was tested, and the Potency was inconclusive: 0.282 µM [inhibitor, full curve, poor fit].
